# Among all 220,000 compounds or so, about 770 (0.35%) were called active. This list was built around the results that the source calls inconclusive (neither active nor inactive); the mix of calls is not that of the screen. Rule as the data show it: active = binding response below about 49% or above about 150%; inconclusive = no clear call, values can overlap the other calls; inactive = in between.
# By UniProt entry, the sequences of proteins in these tests, tags left out.
# UniProt P09471, whole entry, looked up: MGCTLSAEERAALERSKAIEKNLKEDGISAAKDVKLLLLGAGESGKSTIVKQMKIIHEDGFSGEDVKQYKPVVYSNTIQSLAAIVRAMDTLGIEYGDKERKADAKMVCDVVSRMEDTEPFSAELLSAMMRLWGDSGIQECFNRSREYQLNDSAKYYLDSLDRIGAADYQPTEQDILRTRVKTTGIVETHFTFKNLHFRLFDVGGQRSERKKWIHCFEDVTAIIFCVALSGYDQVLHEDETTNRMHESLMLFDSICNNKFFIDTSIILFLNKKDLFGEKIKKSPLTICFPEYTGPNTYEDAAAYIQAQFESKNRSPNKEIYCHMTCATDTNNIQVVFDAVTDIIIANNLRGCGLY
# Molecular target: Guanine nucleotide-binding protein G(o) subunit alpha (Homo sapiens) (UniProt P09471)
# Assay: RGS7-Galphao binding modulators, primary screen, biochemical, multiplexed bead flow cytometry (AID 1439);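 also: fluorescent Galphao held in activated GDP-AlF4 state binding bead-coupled RGS7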
# Conditions: at 10 µM, actives lie on both sides
row,Compound,binding response (% of control)
1,COc1ccc(N=C2SCC(c3ccccc3)=NN2C)cc1,inconclusive: 102%
2,CCOc1cc(/C=N/NC(=O)c2cccnc2)ccc1OCC(=O)N1CCOCC1,inactive: 104%
3,CC(=O)OCC(=O)Nc1ccccc1C,inactive: 89%
4,Nc1nonc1-n1nnc(C(=O)N/N=C/C=C/c2ccccc2)c1CSC1=NCCS1,inconclusive: 110%
5,Oc1ccc(C(c2nnnn2CCc2ccccc2)N2CCN(c3nc4ccccc4s3)CC2)cc1 (stereo not given),inconclusive: 86.9%
6,CC(OC(=O)c1ccc(O)cc1)C(=O)Nc1cc(C(F)(F)F)ccc1Cl (stereo not given),inconclusive: 50.5%
7,CCC(C)(C)NC(=O)C(c1cccn1C)N(C(=O)Cn1nnc2ccccc21)c1ccccc1OC (stereo not given),inactive: 79.2%
8,CCCn1c(C(C)C)n[nH]c1=S,inconclusive: 106%
9,CSCCn1c(C(C)(C)C)cc(C(=O)O)c1C,inconclusive: 112%
10,Nc1nc(CCl)nc(Nc2cccc3ccccc23)n1,inconclusive: 56.5%
11,Cc1csc(SCC(=O)NCc2ccc3c(c2)OCO3)n1,inconclusive: 108%
12,O=C(CN1C(=O)NC2(CCCC2)C1=O)NCCC1=CCCCC1,active: 29.1%
13,COC(=O)CCCCCCCCC(O)C[N+]1(C)CCOCC1 (stereo not given),inconclusive: 465%
14,C#Cc1ccc([C@@H]2C=C(C(=O)OCC=C)O[C@H](OCc3ccc(CO)cc3)C2)cc1,inactive: 91.2%
15,Cc1csc(=Nc2c(C)n(C)n(-c3ccccc3)c2=O)n1-c1ccccc1,inconclusive: 121%
16,COc1ccc(CNC(=O)C(CCSC)NS(=O)(=O)c2ccccc2F)cc1 (stereo not given),inconclusive: 94.4%
17,CC(C)(C)NC(=O)CSc1nnc(-c2ccccn2)n1Cc1ccccc1,inconclusive: 98.9%
18,N#C/C(=N\Nc1ccc([N+](=O)[O-])cc1)C(=N)N1CCOCC1,inconclusive: 67.5%
19,CCOC(=O)NC(=O)CSc1ccc(C)cc1C,inactive: 102%
20,O=C(COC(=O)Cn1cnc2ccccc21)NCCC1=CCCCC1,inactive: 106%
21,COc1ccc(C(=O)c2c(NC(C)=O)sc3c2CCN(C(=O)OC(C)(C)C)C3)cc1,inconclusive: 79.4%
22,c1ccc(-c2ccc(-c3ccccn3)s2)nc1,inconclusive: 162%
23,Fc1ccccc1CSCc1nc2ccccc2[nH]1,inconclusive: 125%

row,Compound,binding response (% of control)
1,COc1ccc(OC)c(NC(=O)CC(NCCC2=CCCCC2)C(=O)O)c1 (stereo not given),inactive: 99.5%
2,C/C(=N\Nc1ccc([N+](=O)[O-])cc1[N+](=O)[O-])C(C)C(C)C (stereo not given),inactive: 97%
3,Cc1nc(SCn2nnc3ccccc3c2=O)nc(C)c1C,inactive: 102%
4,COC(=O)CCC(=O)OC1(C)C(=O)C=C2C=C(C3CC3)N(C3CC3)C=C2C1=O (stereo not given),inconclusive: 96.9%
5,Cn1c(SCC(=O)N/N=C/C=C/c2ccccc2[N+](=O)[O-])nc2ccccc21,inactive: 101%
6,Nc1ccc2nc3c(c(Cl)c2c1)CCCC3,inconclusive: 90%
7,Cc1ccc(C)c(CSC2=NCCN2C(=O)c2cccs2)c1,inconclusive: 103%
8,CC(C)CCc1noc(CN2CCN(CC(=O)NC(C)C)CC2)n1,inconclusive: -148%
9,CCC(=O)Nc1c(-c2ccccc2)c(=O)c2ccccc2n1C,inconclusive: 371%
10,CCCOc1ccc(C(=O)NNC(=S)NC(=O)c2ccco2)cc1,inconclusive: 109%
11,Cc1ccc(NC(=O)C2CCCN(C(=O)c3ccc(Cl)cc3)C2)cc1C (stereo not given),inconclusive: 91.3%
12,CCn1cc(C(=O)NCc2ccncc2)c(=O)c2cc(F)c(N3CCN(C(=O)c4ccco4)CC3)cc21,inconclusive: 2.25%
13,O=C(NCc1ccccn1)C(C(=O)c1cccc([N+](=O)[O-])c1)n1cc(Cl)ccc1=O (stereo not given),inactive: 93.6%
14,NNC(=O)c1csc(COc2cc(Cl)cc(Cl)c2)n1,inconclusive: 50.1%
15,O=C(/C=C/c1ccccc1)Nc1ccc(NC(=O)c2cccs2)cc1,inconclusive: 179%
16,O=C(COC(=O)COc1ccccc1F)Nc1ccc(Cl)cn1,inconclusive: 425%
17,CCN(CCCCCN(C)C)Cc1cc2ccccc2o1,inactive: 95.5%
18,COc1ccc2nc(NC(=O)CS(=O)(=O)Cc3ccccc3)sc2c1,inconclusive: 107%
19,Nc1nc(-c2ccc([N+](=O)[O-])cc2)c(C(=O)Nc2ccc(Cl)cc2)s1,inconclusive: 775%
20,Cc1ccccc1NC(=O)C(C)n1c2ccccc2c2nc(=O)cc(C)n21 (stereo not given),inconclusive: 74.8%
21,O=C(Nc1ccccc1)n1cc(-c2ccccn2)c(N2CCOCC2)n1,inactive: 102%
22,COc1ccc(C(=O)Nc2c(C(C)(C)C)nn(C)c2C(C)(C)C)cc1,inconclusive: -73.6%
23,Cc1ccc(NC(=O)N2CCN(S(=O)(=O)c3ccccc3)CC2)cc1,inconclusive: 80%

# Some values from the entries so far.
# Cc1nc(SCn2nnc3ccccc3c2=O)nc(C)c1C – binding response (% of control): inactive: 102%
# Cn1c(SCC(=O)N/N=C/C=C/c2ccccc2[N+](=O)[O-])nc2ccccc21 – binding response (% of control): inactive: 101%

# The listing continues:

row,Compound,binding response (% of control)
1,COC(=O)Cc1csc(Nc2ccc(F)c(Cl)c2)n1,inconclusive: 71.4%
2,NC(=O)CSc1nnc(COc2ccccc2)n1N,inconclusive: 107%
3,NS(=O)(=O)c1ccc(O)c(NC(=O)c2ccc([N+](=O)[O-])o2)c1,inconclusive: 304%
4,CC(=O)Nc1ccc(-c2csc(NC(C)c3ccccc3)n2)cc1 (stereo not given),inconclusive: 90.4%
5,CC(C)C[C@H](NC(=O)NCCC1=CCCCC1)C(=O)O,inconclusive: -5.43%
6,Cc1ccc(C(=O)c2oc3ccccc3c2NC(=O)c2cc(-c3cc(C)ccc3O)n[nH]2)cc1,inconclusive: 139%
7,CC(=O)Nc1ccc(C(=O)N(C)C(C(=O)Nc2ccccc2)c2ccccn2)cc1 (stereo not given),inactive: 96.2%
8,CCCCc1ccc(NC(=O)C(C)CC)cc1 (stereo not given),inactive: 99.4%
9,C=CCN1C=C2C(=O)C(C)(OC(=O)CCc3ccccc3)C(=O)C=C2C=C1c1ccc(C#N)cc1 (stereo not given),inconclusive: 106%
10,Cc1nc(C(=O)NC(C)C)nn1-c1cc(Cl)cc(Cl)c1,inconclusive: 86.1%
11,COc1ccc(-c2noc(CCC(=O)NCc3ccco3)n2)cc1,inconclusive: 144%
12,O=C(c1ccc(OC2CCN(CCc3ccccc3)CC2)cc1)N1CCCC(CO)C1 (stereo not given),inactive: 101%
13,Cc1cc(C)n2nc(SCCC(=O)NCc3ccccc3)nc2n1,inconclusive: 93.5%
14,O=C1CSC(c2ccncc2)N1Cc1ccc(F)cc1 (stereo not given),inconclusive: 81.5%
15,CCCN(CC(=O)Nc1cc(C)on1)S(=O)(=O)c1cccc(C(F)(F)F)c1,inconclusive: 107%
16,CCN1C(=O)CCC(C(=O)O)C1c1ccc(OC)cc1 (stereo not given),inconclusive: -397%
17,CN(C)NC(=O)c1ccsc1NC(=O)c1ccc(S(=O)(=O)N2CCCC2)cc1,inconclusive: 120%
18,Cc1cc(N)n(-c2ccccc2C)n1,inconclusive: 96.8%
19,N#CCc1c(C#N)c(N)nc(N2CCN(C=O)CC2)c1C#N,inconclusive: 99.7%
20,CN(C)CCOC(=O)c1ccc2c(c1)S(=O)(=O)c1ccccc1C2=O,inconclusive: 104%
21,NC(=O)N/N=C/c1ccc2cccc(OCc3ccccc3)c2n1,inconclusive: 54.1%
22,CCCS(=O)(=O)c1c(S(=O)(=O)CCC)c2cnccn2c1C(=O)c1ccc(OC)cc1,inconclusive: 55.8%
23,COc1ccc(CCN(C)CC(=O)Nc2cc(C)nc3ccccc23)cc1OC,inconclusive: 131%

# Reformatted: results already given.
row	Compound	binding response (% of control)
13	COC(=O)CCCCCCCCC(O)C[N+]1(C)CCOCC1 (stereo not given)	inconclusive: 465%
14	C#Cc1ccc([C@@H]2C=C(C(=O)OCC=C)O[C@H](OCc3ccc(CO)cc3)C2)cc1	inactive: 91.2%
15	Cc1csc(=Nc2c(C)n(C)n(-c3ccccc3)c2=O)n1-c1ccccc1	inconclusive: 121%
16	COc1ccc(CNC(=O)C(CCSC)NS(=O)(=O)c2ccccc2F)cc1 (stereo not given)	inconclusive: 94.4%
17	CC(C)(C)NC(=O)CSc1nnc(-c2ccccn2)n1Cc1ccccc1	inconclusive: 98.9%

# (cont.)

row,Compound,binding response (% of control)
1,CC1Cc2ccccc2N1C(=O)CSc1nn2c(=O)c(C(C)(C)C)nnc2s1 (stereo not given),inconclusive: 99.6%
2,O=C(CCC1CCCN(C(=O)c2ccc3c(c2)OCO3)C1)N1CCN(c2ccccn2)CC1 (stereo not given),inactive: 98.8%
3,Cc1ccccc1N1CCN(C(=O)c2ccccc2NC(=O)c2ccccc2C(=O)O)CC1,inactive: 95.5%
4,O=Cc1c(N2CCN(c3ccccc3)CC2)nc2ccccn2c1=O,inconclusive: 119%
5,COc1ccc(C2c3ccc4ccccc4c3Oc3ncn(CCN4CCOCC4)c(=N)c32)cc1OC (stereo not given),inconclusive: 24.4%
6,Cc1ccc(S(=O)(=O)N2CCOCC2)cc1C(=O)Nc1ccc(C(N)=O)cc1,inconclusive: 245%
7,CC(C)(C)NC(=O)/C=C/c1ccc(C(F)(F)F)cc1,inactive: 59.9%
8,Cc1ccc(C(O)CSc2nnc(-c3ccc4ccccc4c3)n2C)cc1 (stereo not given),inconclusive: 2.73%
9,CS(=O)(=O)N1CCC(C(=O)Nc2ccc(F)cc2F)CC1,inactive: 118%
10,C=CCn1c(SCc2nc3sc(C(=O)O)c(C)c3c(=O)[nH]2)nnc1-c1ccccc1,inconclusive: 102%
11,CCN1C(=O)/C(=C/C=C2\N(CC)c3cc(S(=O)(=O)N(C)C)ccc3N2c2ccccc2)SC1=S,inconclusive: -72.4%
12,C[C@@]12CCC=C[C@H]1[C@H](c1ccc3ccccc3c1/C=C/c1ccccc1)N(Cc1ccccc1)C2=O,inconclusive: 110%
13,CN1CCN(C(=O)/C(C#N)=C/c2ccc(F)cc2)CC1,inconclusive: 101%
14,CCOC(=O)C(=N/O)/C(C)=N/NC(=O)C(=O)Nc1cc(Cl)ccc1Cl,inconclusive: 84.1%
15,CC(C)(C)N(CC#CCC(O)(c1ccccc1)c1ccccc1)CCO,inconclusive: 82.2%
16,Cc1ccc(C(=O)N/C(=C\c2ccc3c(c2)OCO3)C(=O)Nc2ccc(C(=O)O)cc2)cc1,inconclusive: 89.5%
17,CCCNC(=O)c1ccccc1C(=O)NC1(C(=O)NCCC)CCCC1,inconclusive: 97.1%
18,O=C1/C(=C/c2ccccn2)SC(=S)N1N1CCOCC1,inconclusive: 115%
19,CC(C)C(=O)NC(=S)Nc1ccc(S(=O)(=O)N2CCCC2)cc1,inactive: 99.7%
20,Cn1ccnc1C(=O)c1cc(SCC(=O)NC2CC2)nc2ccccc12,inconclusive: 119%
21,Cc1ccc(/C([O-])=C(/C(=S)NCc2ccco2)[n+]2ccccc2)cc1[N+](=O)[O-],inconclusive: 71%
